According to the supplement of paper PMC8256030:
Where “and” joins values, the source holds several entries; their conditions need not be identical. Identical values can stand only once. Some of the results follow. Single values are uncertain here, since repeats match poorly.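 HEK293T cells were given each compound shortly before transfection with a reporter in which red mCherry is followed by the SARS-CoV-2 frameshift element and then GFP in the −1 frame, so GFP appears only after frameshifting.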

Assays:
[1] = test system: SARS-CoV-2 -1 PRF reporter mCherry-FSE-GFP(-1); assay: mCherry (red) intensity as percent of control; higher = higher upstream reporter expression; conditions: 10 µM; 24 h; HEK293T
[2] = test system: SARS-CoV-2 -1 PRF reporter mCherry-FSE-GFP(-1); assay: percent effect, decrease of GFP/mCherry ratio (-1 PRF reporter) relative to controls; higher = stronger frameshift inhibition; conditions: 10 µM; 24 h; HEK293T

SMILES	mCherry [1]	percent effect [2]
C[C@]12CC[C@@H]3c4ccc(O)cc4CC[C@H]3[C@@H]1CC[C@@H]2OP(=O)(O)O [polyestradiol phosphate]	123%	-1.57%
OCc1ccccc1O	109%	-1.99%
O=C(O)c1cn(C2CC2)c2cc(N3CCNCC3)c(F)cc2c1=O [ciprofloxacin]	103% and 86.4%	-1.37% and 0.897%
COc1cc(-c2ccc(=O)[nH]n2)ccc1OC(F)F [zardaverine]	103%	5.19%
C[C@H](N)C(=O)N[C@@H](C)C(=O)N[C@H]1[C@@H]2CN(c3nc4c(cc3F)c(=O)c(C(=O)O)cn4-c3ccc(F)cc3F)C[C@@H]21 [alatrofloxacin]	105%	1.81%
CN1CCN(C(c2ccccc2)c2ccc(Cl)cc2)CC1 (stereo not given)	96.8%	2.14%
CCCCCCOC(=O)NC(=N)c1ccc(NCc2nc3cc(C(=O)N(CCC(=O)OCC)c4ccccn4)ccc3n2C)cc1 [Dabigatran etexilate]	52.2%	-5.83%
CC(C)CCC[C@@H](C)[C@H]1CC[C@H]2[C@@H]3CC=C4C[C@@H](O)CC[C@]4(C)[C@H]3CC[C@]12C	141%	-3.7%
CC1(NC2=NS(=O)(=O)c3sc(Cl)cc3N2)CC1	88.7%	-6.67%
C=CCN1CCCC1CNC(=O)c1cc(S(N)(=O)=O)cc(OC)c1OC (stereo not given) [veralipride]	85.1%	-2.52%
O=C(O)/C=C/c1ccc(Cn2ccnc2)cc1 [ozagrel]	117%	-0.902%
CCOC(=O)/C=C(C)/C=C/C=C(C)/C=C/c1c(C)cc(OC)c(C)c1C [Etretinate]	53.4%	-3.13%
O=C1c2ccccc2C(=O)C1c1ccccc1 [phenindione]	89.2%	-2.61%
CC(C)(C)C(O)/C=C/c1ccc2c(c1)OCO2 (stereo not given) [stiripentol]	90.9%	2.02%
COC(=O)CCc1ccc(OCC(O)CNC(C)C)cc1 (stereo not given) [esmolol]	113%	3.22%
Cc1c(CN2CCOC(c3ccccc3)C2C)c(=O)n(-c2ccccc2)n1C (stereo not given) [morazone]	62.8%	-1.81%
O=C(c1ccccc1)c1ccc2n1CCC2C(=O)O (stereo not given) [ketorolac]	87.7%	-1.66%
CC[C@H]1OC(=O)[C@H](C)C(=O)[C@H](C)[C@@H](O[C@@H]2O[C@H](C)C[C@H](N(C)C)[C@H]2O)[C@](C)(OC)C[C@@H](C)C(=O)[C@H](C)[C@H]2N(CCCCn3cnc(-c4cccnc4)c3)C(=O)O[C@]12C	119%	-0.48%

SMILES	mCherry [1]	percent effect [2]
Cc1ccc(N(CC2=NCCN2)c2cccc(O)c2)cc1 [phentolamine]	117% and 109%	2.12% and -8.51%
CC(=O)NS(=O)(=O)c1ccc(NC(=O)c2ccccc2C(=O)O)cc1	117%	2.42%
Clc1ccc(C(Cn2ccnc2)OCc2csc3c(Cl)cccc23)c(Cl)c1 (stereo not given) [sertaconazole]	94.1%	-2.45%
CN1CCC(CN2c3ccccc3Sc3ccccc32)C1 (stereo not given) [methdilazine]	68.8%	-0.159%
Cc1cc(O)c(Cl)c(C)c1Cl [dichloroxylenol]	78.7%	-7.32%
NCCc1cc[nH]n1 [betazole]	109%	-3.3%
CCC1(c2ccccc2)NC(=O)N(C)C1=O (stereo not given) [mephenytoin]	84.3%	-5.28%
CCOC(=O)COc1ccc2c(C)c(CCN(CC)CC)c(=O)oc2c1 [Carbocromen]	115%	-0.604%
CCCN(CCC)C(=O)C(Cc1ccc(OCCN(CC)CC)cc1)NC(=O)c1ccccc1 (stereo not given) [tiropramide]	77.5%	-1.28%
CCCCCCCCCCCCN1CCCCCC1=O [laurocapram]	97.9%	0.428%
CC1CCc2cc(F)cc3c(=O)c(C(=O)O)cn1c23 (stereo not given) [flumequine]	121%	-1.34%
COC(c1ccccc1)(c1ccccc1)[C@H](Oc1nc(C)cc(C)n1)C(=O)O [ambrisentan]	95.1%	-4.04%
CC(=O)O[C@]1(C(C)=O)CC[C@H]2[C@@H]3C=C(Cl)C4=CC(=O)CC[C@]4(C)[C@H]3CC[C@@]21C [Chlormadinone Acetate]	110%	-3.09%
CNS(=O)(=O)Cc1ccc2[nH]cc(CCN(C)C)c2c1	116%	-3.11%
CCN(CC)CCOCCOC(=O)C1(c2ccccc2)CCCC1 [pentoxyverine]	88.2%	-5.34%
CC(C)C[C@H](NC(=O)[C@@H](O)[C@H](N)Cc1ccccc1)C(=O)O [ubenimex]	104%	-4%
CCN1C(=O)NC(c2ccccc2)C1=O (stereo not given) [ethotoin]	108%	-2%
